Laboratory results as given in patent US5268308A, “Immunoassay for pyridostigmine” (priority 1989, dated 1993).
At least one structure is not confirmed: it was looked up by name or label, or the drawing left a doubt.

Tests used:
Pyridostigmine Antibody = test: Cross-reactivity with pyridostigmine antibody in RIA (competition with labeled pyridostigmine); type: binding, rabbit (male New Zealand white); details: labeled pyridostigmine 5000 DPM; maximum tested 500 ng
Description: Antibodies to the pyridostigmine-BSA immunogen were produced by injecting male New Zealand white rabbits. Prior to injection, the immunogen was emulsified with an equal volume of complete Freund's adjuvant, purchased from Difco Laboratories. The initial immunization consisted of 0.8 mg of protein injected intracutaneously into the back of the rabbits. Booster injections containing 0.8 mg of immunogen and incomplete Freund's adjuvant were administered every one or two months for the next seven months. Blood was collected one week after each booster injection from the central ear vein. The blood was allowed to clot at room temperature and then centrifuged at 1500×g for 15 minutes. The separated serum was stored frozen at -20° C. until assayed for the presence of pyridostigmine antibody. […] FIG. 1 is the antibody dilution curve for pyridostigmine.
In the assay procedure tritiated pyridostigmine having specificity of […] was used as tracer. The dilution of tracer, antisera and pyridostigmine standards were made using 0.01 M phosphate buffer containing 150 mM sodium chloride with a pH of 7.4.. […] Both standard and sample tubes were always analyzed in duplicate. The assay was carried out according to the protocol shown in. […]
Cross-reactivity of various compounds with pyridostigmine antibody was determined in the RIA. […]

acetylcholinesterase = details: cited from earlier work

Structure (SMILES): CC(=O)OCC[N+](C)(C)C [Acetylcholine]
- IC 50 (50% inhibition of binding of 3H-pyridostigmine to the antibody) (Pyridostigmine Antibody): > 500 ng
- molecules of acetylcholine hydrolyzed per enzyme molecule (acetylcholinesterase): 3×105 molecules per minute
